# According to PubChem BioAssay AID1671190 (National Center for Advancing Translational Sciences (NCATS), 2021):
# Chains of the proteins cited; added tags and fusions are not shown. Lines headed by an entry give the natural chain unless they say otherwise; changes in a name come on top.
# UniProt P18054: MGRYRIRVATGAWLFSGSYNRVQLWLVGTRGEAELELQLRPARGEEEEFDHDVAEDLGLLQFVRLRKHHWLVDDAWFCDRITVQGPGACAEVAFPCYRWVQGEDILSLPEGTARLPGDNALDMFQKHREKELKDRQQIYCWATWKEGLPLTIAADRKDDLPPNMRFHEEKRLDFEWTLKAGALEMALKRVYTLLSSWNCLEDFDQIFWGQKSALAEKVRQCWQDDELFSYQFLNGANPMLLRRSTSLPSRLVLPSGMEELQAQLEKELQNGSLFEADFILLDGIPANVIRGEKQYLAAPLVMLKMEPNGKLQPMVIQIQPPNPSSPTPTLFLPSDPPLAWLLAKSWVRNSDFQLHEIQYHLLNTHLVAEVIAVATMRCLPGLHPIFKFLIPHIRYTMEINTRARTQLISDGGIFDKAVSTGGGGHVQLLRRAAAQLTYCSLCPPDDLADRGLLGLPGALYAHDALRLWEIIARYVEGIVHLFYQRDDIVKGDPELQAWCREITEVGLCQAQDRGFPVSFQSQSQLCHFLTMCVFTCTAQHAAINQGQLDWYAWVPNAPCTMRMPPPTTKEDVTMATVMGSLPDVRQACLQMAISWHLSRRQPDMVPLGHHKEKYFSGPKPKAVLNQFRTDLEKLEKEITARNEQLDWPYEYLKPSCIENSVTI
# Screen size: about 580,000 compounds; about 6,100 (1.1%) were called active. This list was built around the results that the source calls inconclusive (neither active nor inactive); the mix of calls is not that of the screen. The call rests on the fitted dose curve; in most records, active means well fitted inhibition curve with a large enough effect; inconclusive means small, poorly fitted or top-dose-only effect, or another doubt; inactive means no such curve, though single readings can be large or run the other way. Potencies beside an inconclusive call are fits to weak or partial responses and may not hold up.
# Target: Polyunsaturated fatty acid lipoxygenase ALOX12 (Homo sapiens) (UniProt P18054)
# Assay: Primary qHTS assay for inhibitors of human arachidonate 12S-lipoxygenase (ALOX12): Round 2
# Conditions: purified 12hLO, xylenol orange hydroperoxide absorbance; series mostly up to 108 µM
# Method in brief: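 Purified human 12hLO (150 nM final) in 25 mM Hepes, 0.01% Triton X-100, pH 7.0 was preincubated 15 min at room temperature with compound. Then 40 uM arachidonic acid was added, 30 min. Hydroperoxide was read by Fe-XO absorbance ratio 573/405 nm.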
# Potency means the concentration at half of the fitted maximal effect.
row,Structure (SMILES),Potency
1,COc1cccc(-c2n[nH]c(=O)c3c2C(c2cccc(F)c2)n2nnnc2N3)c1 (stereo not given),inactive
2,Cc1ccc(NC(=S)N(Cc2cccs2)Cc2cc3cccc(C)c3[nH]c2=O)cc1,inactive
3,CC1(C)C(=O)N(Cc2ccccc2F)[C@H]2CN(Cc3ccc4c(c3)CCO4)C[C@H]2[S+]1(=O)[O-],"inconclusive: 89.1 µM [inhibitor, partial curve, poor fit]"
4,CO[C@H]1[C@H](NC(=O)c2cc(=O)[nH]c(=O)[nH]2)c2ccccc2C12CCNCC2,"inconclusive: 17.8 µM [inhibitor, single point]"
5,Cc1ccc(CNC(=O)CCCn2c(=O)c3ccccc3n(CC(=O)Nc3ccc(C)c(C)c3)c2=O)cc1,"inconclusive: 28.2 µM [inhibitor, single point]"
6,CSCCCNC(=S)Nc1cc(F)ccc1C,"inconclusive: 112 µM [inhibitor, single point]"
7,C/C(N)=C(/C#N)C(=O)CSc1nc2scc(-c3ccccc3)c2c(=O)n1C,inactive
8,Cc1ccc(-c2nc(Cn3cnc(C#N)n3)co2)c(C)c1,"inconclusive: 0.251 µM [inhibitor, full curve, poor fit]"
9,O=C(Nc1cccc(S(=O)(=O)N2CCCCC2)c1)c1ccc(S(=O)(=O)C(F)F)cc1,inactive
10,COc1ccc(Cl)cc1C(=O)Nc1c(N2CCCC2)c2ccccc2oc1=O,"inconclusive: 44.7 µM [inhibitor, single point]"
11,COCc1nc(C2CCCN(C(=O)c3nccn3C)C2)no1 (stereo not given),inactive
12,Cc1ccccc1N1CCN(S(=O)(=O)c2nnc(NC(=O)c3ccco3)s2)CC1,"inconclusive: 141 µM [inhibitor, single point]"
13,Cc1ccc(C(=O)N(C)Cc2ccsc2)s1,inactive
14,CCOCc1nnc(NC(=O)C2CC(=O)N(C3CCCC3)C2)s1 (stereo not given),"inconclusive: 25.1 µM [inhibitor, partial curve, poor fit]"
15,Cc1ccc(-n2ncc3c(NCCC4=CCCCC4)ncnc32)cc1,active: 12.6 µM
16,CN1CCN(CC#CCC(O)(c2ccccc2)C2CCCC2)CC1 (stereo not given),"inconclusive: 31.6 µM [inhibitor, single point]"
17,N#Cc1ccc(CSc2ccccc2C(=O)Nc2ccc3c(c2)OCCCO3)cc1,active: 14.1 µM
18,O=C(O)c1cc(S(=O)(=O)NCC2COc3ccccc3O2)ccc1Cl (stereo not given),"inconclusive: 39.8 µM [inhibitor, single point]"
19,Cc1ccc(Cl)cc1NC(=O)C(C)n1nc(-c2ccccc2)ccc1=O (stereo not given),"inconclusive: 50.1 µM [inhibitor, partial curve, poor fit]"
20,CC(=O)Oc1c(C)c2c3c(c1OC(C)=O)[C@@H](C)CC[C@@H]3[C@@H](C)C[C@H]2C=C(C)C,"inconclusive: 50.1 µM [inhibitor, partial curve, poor fit]"
21,COc1ccc(C2Cn3nnc(C(=O)N4CCC(C(=O)NCCC5=CCCCC5)CC4)c3CO2)cc1 (stereo not given),inactive
22,O=C1CCN(S(=O)(=O)c2ccc(Cl)cc2)C(c2ccccc2)C1 (stereo not given),"inconclusive: 112 µM [inhibitor, partial curve, poor fit]"
23,Cc1ccc(C(C)C)c(OCCCCCN2CCOCC2)c1,"inconclusive: 3.16 µM [inhibitor, full curve, poor fit]"

# Taken from above:
# Under Potency, COc1cccc(-c2n[nH]c(=O)c3c2C(c2cccc(F)c2)n2nnnc2N3)c1 (stereo not given) shows inactive
# Under Potency, COc1ccc(C2Cn3nnc(C(=O)N4CCC(C(=O)NCCC5=CCCCC5)CC4)c3CO2)cc1 (stereo not given) shows inactive

# The results go on.

row,Structure (SMILES),Potency
1,Cn1cc(S(=O)(=O)c2ccccc2)c(=O)c2cc(Cl)ccc21,inactive
2,Cc1ccccc1OCCNC(=O)CSc1ccc(C(F)(F)F)cc1[N+](=O)[O-],"inconclusive: 0.501 µM [inhibitor, full curve, poor fit]"
3,Cc1ccc(Cn2cc(-c3ccncc3)cc2C(=O)NCc2ccc(N(C)C)cc2)cc1,"inconclusive: 50.1 µM [inhibitor, partial curve]"
4,COc1ccc(C(=O)N2CCCOCCNC(=O)CC2)cc1,inactive
5,Cc1ccc(CN2CCCN(C)CC2)c(C)c1,inactive
6,O=C(NCc1ccco1)c1sc(=S)n2c1[nH]c(=O)c1ccccc12,active: 15.8 µM
7,O=C(C1CCCN(Cc2ccccc2[N+](=O)[O-])C1)N1CCCCC1 (stereo not given),active: 2 µM
8,Nc1ncnc2c1ncn2[C@@H]1O[C@H](CNC(=O)[C@@H](N)Cc2ccc(C(F)(F)F)cc2)[C@@H](O)[C@H]1O,inactive
9,CN1CCC(N(C)CC(O)c2ccccc2)CC1 (stereo not given),"inconclusive: 7.08 µM [inhibitor, full curve, poor fit]"
10,COc1ccc(C2=CC(c3ccccc3Cl)n3nc(-c4ccc(Cl)cc4)nc3N2)cc1 (stereo not given),active: 5.01 µM
11,CC(C)c1ccccc1NC(=O)c1ccc2c(c1)NC(=O)CS2,"inconclusive: 0.891 µM [inhibitor, full curve, poor fit]"
12,C=CCn1c(-c2ccc(Cl)cc2)cnc1SC(C)C(=O)NC(N)=O (stereo not given),inactive
13,CCOc1ccccc1Nc1cc(C)nc2nc(C)nn12,active: 5.62 µM
14,Cc1nc(SCC(=O)c2c[nH]c3ccccc23)n[nH]1,"inconclusive: 89.1 µM [inhibitor, partial curve, poor fit]"
15,N#CCOc1ccc(NC(=O)c2n[nH]c(=O)c3ccccc23)cc1,inactive
16,CC(NC(=O)c1nccnc1N)c1cccc(Br)c1 (stereo not given),inactive
17,COc1cccc(-n2c(=O)c3ccccc3n(CC(=O)NCC3CCCO3)c2=O)c1 (stereo not given),"inconclusive: 100 µM [inhibitor, partial curve, poor fit]"
18,O=C(c1cc(F)ccc1F)N1CCCC2(C1)NC(=O)N(Cc1ccc(Cl)cc1)C2=O (stereo not given),inactive
19,NC(=O)[C@@H](Cc1ccccc1)NC(=O)[C@@]1(O)C[C@@H](O)[C@H](O)[C@@H](NC(=O)Cc2cccs2)C1,"inconclusive: 31.6 µM [inhibitor, partial curve, poor fit]"
20,CSC(=Nc1ccc(Cl)cc1)N[n+]1ccccc1,"inconclusive: 10 µM [inhibitor, full curve]"
21,CC(NCc1cccc(C#N)c1)c1cc2ccccc2o1 (stereo not given),"inconclusive: 50.1 µM [inhibitor, partial curve, poor fit]"
22,COc1ccc2c(c1)CCN=C2C[C@H]1CN(C(=O)C(=O)O)CC[C@H]1CC(=O)O,"inconclusive: 12.6 µM [inhibitor, full curve, poor fit]"
